{"source": "patent US20090036368A1", "about": "“Therapeutic Combination” (HAMLET PHARMA AB, priority 2005, published 2009)", "test_system": "Jurkat cells", "assay": "subG1 population / DNA fragmentation by flow cytometry after PI staining", "assay_type": "cell-based", "settings": "pre-treated with TSA 100 ng/ml or SAHA 2.5 μM for 2 hours, HAMLET 1 hour", "procedure": "Cell Cycle Analysis by cytometry—Cells were harvested, washed with PBS and then fixed in suspension in 75% cold ethanol at 4° C. for 2 hours at least. The samples were then centrifuged, washed with PBS, and treated with 0.25% triton X-100 for 10 minutes at room temperature. The cells were washed again, resuspended in 2.5 μg/ml of PI and 250 μg/ml Rnase A in PBS, and incubated at 4° C. overnight prior to measurement. Cellular fluorescence was measured using the Facscalibur flow cytometry (Becton Dickinson, San Jose, Calif.). The simple-cell populations were determinated on the basis of their fluorescence-intensity values FL2-A and FL2-W.\nThe effects of HAMLET on DNA fragmentation were compared between untreated cells and those pre-treated with TSA to increase acetylation. Sub G0/G1 DNA fragmentation was quantified by flow cytometry using the methodology as described in Example 1.\nCells in medium were used as controls."}
{"smiles": "O=C(CCCCCCC(=O)Nc1ccccc1)NO", "note": "[SAHA, suberoylanilide hydroxamic acid]", "values": [{"measurement": "HAMLET-induced DNA fragmentation after HDAC inhibitor pre-treatment", "result": "enhanced"}]}
